Assay results: patent US5470714A, “One-step free fatty acid determination method” (Lidak Pharmaceuticals, priority 1993, dated 1995)
At least one compound was matched to its structure with a doubt left.

By UniProt entry, the sequences of proteins in these tests, tags left out. Residues count along the entry.
UniProt P02693, 2-132: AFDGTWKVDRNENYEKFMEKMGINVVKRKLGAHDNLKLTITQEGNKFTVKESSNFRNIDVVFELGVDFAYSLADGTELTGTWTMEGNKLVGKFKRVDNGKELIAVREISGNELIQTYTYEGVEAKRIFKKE

Experiments:
[1] = FFA aggregate formation (CMC) by ADIFAB titration maximum and 90° light scattering, effect of 1 mM calcium; format: physicochemical; settings: for reduction in the CMC: 1 mM Ca, decrease in ADIFAB titration maximum and increase in light scattering; for monomer concentration in extracellular fluid or plasma, upper limit: extracellular calcium about 1 mM
[2] = molecular target: ADIFAB (Acrylodan derivatized native rat I-FABP, Lys27) (Rattus norvegicus, UniProt P02693); format: binding
Method: In most of the studies FFA was added to ADIFAB, in a buffer (A) consisting of 10 Mm HEPES, 150 Mm NaCI, 5 mM KCI, and 1 mM NaHPO4 at pH 7.4, as the sodium salt of the fatty acid. […] FA bind to most surfaces and values of the total FA concentration ([FAT]) were corrected for FA binding to cuvette and container walls. This binding was determined using trace amounts of […] labeled FA and, separately, ADIFAB florescence to determine the degree of FA loss upon transfer from one container to another. […] To minimize FA binding to surfaces, the monomer concentrations of stock solutions of the Na salts were maintained at pH >9.0 in water, and were warmed to >37° C. just prior to use. […]
The concentrations of FA in the aqueous phase (FFA) and FA bound to ADIFAB ([FAb ]) were determined from the ratio of fluorescence emission intensities at 432 and 505 nm (R). […]
Because of the limiting solubility of long chain FA in aqueous solution Rmax and Q cannot. in general, be determined directly. To determine Rmax and Q, ADIFAB was titrated with lauric acid (12:0) whose high CMC allowed maximum R values (~10-11) to be measured that were considerably greater than with longer chain FA. […]
Fluorescence measurements to monitor Acrylodan fluorescence in various solvents, to monitor adduct formation, and to obtain complete spectra were carried out using an SLM 8000C fluorometer. […]

[3] = system: FAD508 (recombinant I-FABP, Thr82-Cys82, ACRYLODAN derivatized); assay: Titration of FAD508 with unbound oleic acid / long chain FFA (fluorescence emission, 497/430 nm ratio); format: binding, rat; settings: 4mM oleic acid; zero FFA value about 2.5

Row | SMILES | reduction in the CMC [1] | ADIFAB sensitivity to FFA levels (lowest detectable level) [2] [nM] | monomer concentration in extracellular fluid or plasma, upper limit [1] [mM] | ratio of 497nm to 430nm emission intensities at saturation [3] | maximum R value (505/432 intensity ratio) of ADIFAB ([2]; titration with lauric acid (12:0))
1 | CCCCC/C=C\C/C=C\C/C=C\C/C=C\CCCC(=O)O [ARACHIDONATE, arachidonate] | approximately 6 fold |  |  |  | 
2 | CCCCCCCC/C=C\CCCCCCCC(=O)O [OLEATE, oleate] | approximately 6 fold | 1 | 1 to 3 | about 18 | 
3 | CCCCCCCCCCCCCCCC(=O)O [PALMITATE, palmitate] |  |  | 1 to 3 |  | 
4 | CCCCCCCCCCCC(=O)O [laurate] |  |  |  |  | 10-11
